Source: US11225470B2, “Tetrazolinone compounds and its use as pest control agents” (SUMITOMO CHEMICAL COMPANY, LIMITED, priority 2016, dated 2022)
Some of these results come from one statement about several compounds together.

Assays:
Format in all cases: in vivo
[1] = tested on: soybean rust fungi (Phakopsora pachyrhizi); experiment: soybean rust test, spraying before inoculation; conditions: 200 ppm foliar spray, inoculation after 4 days; soybean cv Kurosengoku
[2] = tested on: wheat leaf blotch fungi (Septoria tritici); experiment: wheat leaf blotch test, spraying before inoculation; conditions: inoculation after 4 days
[3] = tested on: wheat brown rust fungi (Puccinia recondita); experiment: wheat brown rust test; conditions: inoculation after 5 days, wheat cv SHIROGANE
[4] = tested on: barley net blotch fungi (Pyrenophora teres); experiment: barley net blotch test; conditions: 200 ppm foliar spray, inoculation after 2 days; barley cv MIKAMO GOLDEN
[5] = tested on: kidney bean sclerotinia rot fungi (Sclerotinia sclerotiorum); experiment: kidney bean sclerotinia rot test; conditions: kidney bean cv NAGAUZURA SAITO, observed after four days
[6] = tested on: cucumber downy mildew fungi (Pseudoperonospora cubensis); experiment: cucumber downy mildew test; conditions: inoculation after 1 day, cucumber cv SAGAMIHANJIRO
[7] = tested on: wheat leaf blotch fungi (Septoria tritici); experiment: wheat leaf blotch test, spraying after inoculation; conditions: 200 ppm foliar spray 3 days after inoculation; wheat cv APOGEE
[8] = tested on: soybean frogeye leaf spot disease fungi (Cercospora sojina); experiment: soybean frogeye leaf spot test, spraying before inoculation; conditions: 200 ppm foliar spray, inoculation after 2 days; soybean cv TACHINAGAHA
[9] = tested on: soybean powdery mildew fungi (Erysiphe diffusa); experiment: soybean powdery mildew test, spraying after inoculation; conditions: 200 ppm foliar spray 2 days after inoculation; soybean cv KUROSENGOKU
[10] = tested on: barley scald fungi (Rhynchosporium secalis); experiment: barley scald test; conditions: 500 ppm foliar spray, inoculation after 2 days; barley cv NISHINOHOSHI
[11] = 200 ppm foliar spray, wheat cv APOGEE
[12] = 500 ppm foliar spray, wheat cv Apogee

CCC(=NN=C(C)c1cccc2c1CCC2)OCc1c(C)cccc1-n1nnn(C)c1=O [D-10]
≤ 30%: lesion area compared to the lesion area in an untreated soybean [1] | lesion area compared to the lesion area in an untreated wheat [2, 11] | lesion area compared to the lesion area in an untreated wheat ([3]; 200 ppm foliar spray) | lesion area compared to the lesion area in an untreated barley [4] | lesion area compared to the lesion area in an untreated kidney bean ([5]; 200 ppm foliar spray) | lesion area compared to the lesion area in an untreated cucumber ([6]; 50 ppm foliar spray) | lesion area compared to the lesion area in an untreated wheat [7] | lesion area compared to the lesion area in an untreated soybean [8] | lesion area compared to the lesion area in an untreated soybean [9]

CCC(=NN=C(C)c1nn(C)c2ccccc12)OCc1c(C)cccc1-n1nnn(C)c1=O [D-16]
≤ 30%: lesion area compared to the lesion area in an untreated soybean [1] | lesion area compared to the lesion area in an untreated wheat [2, 11] | lesion area compared to the lesion area in an untreated wheat ([3]; 200 ppm foliar spray) | lesion area compared to the lesion area in an untreated barley [4] | lesion area compared to the lesion area in an untreated kidney bean ([5]; 200 ppm foliar spray) | lesion area compared to the lesion area in an untreated cucumber ([6]; 200 ppm foliar spray) | lesion area compared to the lesion area in an untreated wheat [7] | lesion area compared to the lesion area in an untreated soybean [8] | lesion area compared to the lesion area in an untreated soybean [9]

CCC(=NN=C1CCc2c(F)cccc21)OCc1c(C)cccc1-n1nnn(C)c1=O [E-2]
≤ 30%: lesion area compared to the lesion area in an untreated soybean [1] | lesion area compared to the lesion area in an untreated wheat [2, 11] | lesion area compared to the lesion area in an untreated wheat [2, 12] | lesion area compared to the lesion area in an untreated wheat ([3]; 200 ppm foliar spray) | lesion area compared to the lesion area in an untreated wheat ([3]; 500 ppm foliar spray) | lesion area compared to the lesion area in an untreated barley [4] | lesion area compared to the lesion area in an untreated kidney bean ([5]; 200 ppm foliar spray) | lesion area compared to the lesion area in an untreated kidney bean ([5]; 500 ppm foliar spray) | lesion area compared to the lesion area in an untreated barley [10] | lesion area compared to the lesion area in an untreated cucumber ([6]; 200 ppm foliar spray) | lesion area compared to the lesion area in an untreated wheat [7] | lesion area compared to the lesion area in an untreated soybean [8] | lesion area compared to the lesion area in an untreated soybean [9]

CCC(=NN=C1CCc2ccc(F)cc21)OCc1c(C)cccc1-n1nnn(C)c1=O [E-4]
≤ 30%: lesion area compared to the lesion area in an untreated soybean [1] | lesion area compared to the lesion area in an untreated wheat [2, 11] | lesion area compared to the lesion area in an untreated wheat [2, 12] | lesion area compared to the lesion area in an untreated wheat ([3]; 200 ppm foliar spray) | lesion area compared to the lesion area in an untreated wheat ([3]; 500 ppm foliar spray) | lesion area compared to the lesion area in an untreated barley [4] | lesion area compared to the lesion area in an untreated kidney bean ([5]; 200 ppm foliar spray) | lesion area compared to the lesion area in an untreated kidney bean ([5]; 500 ppm foliar spray) | lesion area compared to the lesion area in an untreated barley [10] | lesion area compared to the lesion area in an untreated cucumber ([6]; 200 ppm foliar spray) | lesion area compared to the lesion area in an untreated wheat [7] | lesion area compared to the lesion area in an untreated soybean [8] | lesion area compared to the lesion area in an untreated soybean [9]

CCC(=NN=C1CCc2cccc(F)c21)OCc1c(C)cccc1-n1nnn(C)c1=O [E-5]
≤ 30%: lesion area compared to the lesion area in an untreated soybean [1] | lesion area compared to the lesion area in an untreated wheat [2, 11] | lesion area compared to the lesion area in an untreated wheat [2, 12] | lesion area compared to the lesion area in an untreated wheat ([3]; 200 ppm foliar spray) | lesion area compared to the lesion area in an untreated wheat ([3]; 500 ppm foliar spray) | lesion area compared to the lesion area in an untreated barley [4] | lesion area compared to the lesion area in an untreated kidney bean ([5]; 200 ppm foliar spray) | lesion area compared to the lesion area in an untreated kidney bean ([5]; 500 ppm foliar spray) | lesion area compared to the lesion area in an untreated barley [10] | lesion area compared to the lesion area in an untreated cucumber ([6]; 50 ppm foliar spray) | lesion area compared to the lesion area in an untreated cucumber ([6]; 200 ppm foliar spray) | lesion area compared to the lesion area in an untreated wheat [7] | lesion area compared to the lesion area in an untreated soybean [8] | lesion area compared to the lesion area in an untreated soybean [9]

CCC(=NN=C1CCc2ccc(OC)cc21)OCc1c(C)cccc1-n1nnn(C)c1=O [E-8]
≤ 30%: lesion area compared to the lesion area in an untreated soybean [1] | lesion area compared to the lesion area in an untreated wheat [2, 11] | lesion area compared to the lesion area in an untreated wheat [2, 12] | lesion area compared to the lesion area in an untreated wheat ([3]; 200 ppm foliar spray) | lesion area compared to the lesion area in an untreated wheat ([3]; 500 ppm foliar spray) | lesion area compared to the lesion area in an untreated barley [4] | lesion area compared to the lesion area in an untreated kidney bean ([5]; 200 ppm foliar spray) | lesion area compared to the lesion area in an untreated kidney bean ([5]; 500 ppm foliar spray) | lesion area compared to the lesion area in an untreated barley [10] | lesion area compared to the lesion area in an untreated cucumber ([6]; 50 ppm foliar spray) | lesion area compared to the lesion area in an untreated cucumber ([6]; 200 ppm foliar spray) | lesion area compared to the lesion area in an untreated wheat [7] | lesion area compared to the lesion area in an untreated soybean [8] | lesion area compared to the lesion area in an untreated soybean [9]

CCC(=NN=C1CCOc2ccccc21)OCc1c(Cl)cccc1-n1nnn(C)c1=O [E-13]
≤ 30%: lesion area compared to the lesion area in an untreated soybean [1] | lesion area compared to the lesion area in an untreated wheat [2, 11] | lesion area compared to the lesion area in an untreated wheat [2, 12] | lesion area compared to the lesion area in an untreated wheat ([3]; 200 ppm foliar spray) | lesion area compared to the lesion area in an untreated wheat ([3]; 500 ppm foliar spray) | lesion area compared to the lesion area in an untreated barley [4] | lesion area compared to the lesion area in an untreated kidney bean ([5]; 200 ppm foliar spray) | lesion area compared to the lesion area in an untreated kidney bean ([5]; 500 ppm foliar spray) | lesion area compared to the lesion area in an untreated barley [10] | lesion area compared to the lesion area in an untreated cucumber ([6]; 200 ppm foliar spray) | lesion area compared to the lesion area in an untreated wheat [7] | lesion area compared to the lesion area in an untreated soybean [8] | lesion area compared to the lesion area in an untreated soybean [9]

CCC(=NN=C1CCOc2ccccc21)OCc1c(C2CC2)cccc1-n1nnn(C)c1=O [E-14]
≤ 30%: lesion area compared to the lesion area in an untreated soybean [1] | lesion area compared to the lesion area in an untreated wheat [2, 11] | lesion area compared to the lesion area in an untreated wheat [2, 12] | lesion area compared to the lesion area in an untreated wheat ([3]; 200 ppm foliar spray) | lesion area compared to the lesion area in an untreated wheat ([3]; 500 ppm foliar spray) | lesion area compared to the lesion area in an untreated barley [4] | lesion area compared to the lesion area in an untreated kidney bean ([5]; 200 ppm foliar spray) | lesion area compared to the lesion area in an untreated kidney bean ([5]; 500 ppm foliar spray) | lesion area compared to the lesion area in an untreated barley [10] | lesion area compared to the lesion area in an untreated cucumber ([6]; 50 ppm foliar spray) | lesion area compared to the lesion area in an untreated cucumber ([6]; 200 ppm foliar spray) | lesion area compared to the lesion area in an untreated wheat [7] | lesion area compared to the lesion area in an untreated soybean [8] | lesion area compared to the lesion area in an untreated soybean [9]

CCC(=NN=C1CCS(=O)(=O)c2ccccc21)OCc1c(C)cccc1-n1nnn(C)c1=O [E-19]
≤ 30%: lesion area compared to the lesion area in an untreated soybean [1] | lesion area compared to the lesion area in an untreated wheat [2, 11] | lesion area compared to the lesion area in an untreated wheat [2, 12] | lesion area compared to the lesion area in an untreated wheat ([3]; 200 ppm foliar spray) | lesion area compared to the lesion area in an untreated wheat ([3]; 500 ppm foliar spray) | lesion area compared to the lesion area in an untreated barley [4] | lesion area compared to the lesion area in an untreated kidney bean ([5]; 500 ppm foliar spray) | lesion area compared to the lesion area in an untreated barley [10] | lesion area compared to the lesion area in an untreated wheat [7] | lesion area compared to the lesion area in an untreated soybean [8] | lesion area compared to the lesion area in an untreated soybean [9]

CCC(=NN=C1CCOc2c(F)cc(F)cc21)OCc1c(C)cccc1-n1nnn(C)c1=O [E-23]
≤ 30%: lesion area compared to the lesion area in an untreated soybean [1] | lesion area compared to the lesion area in an untreated wheat [2, 11] | lesion area compared to the lesion area in an untreated wheat [2, 12] | lesion area compared to the lesion area in an untreated barley [4] | lesion area compared to the lesion area in an untreated barley [10] | lesion area compared to the lesion area in an untreated cucumber ([6]; 200 ppm foliar spray) | lesion area compared to the lesion area in an untreated wheat [7] | lesion area compared to the lesion area in an untreated soybean [8] | lesion area compared to the lesion area in an untreated soybean [9]

CCC(=NN=C1CCCc2ccccc21)OCc1c(C)cccc1-n1nnn(C)c1=O [E-25]
≤ 30%: lesion area compared to the lesion area in an untreated soybean [1] | lesion area compared to the lesion area in an untreated wheat [2, 11] | lesion area compared to the lesion area in an untreated wheat [2, 12] | lesion area compared to the lesion area in an untreated wheat ([3]; 200 ppm foliar spray) | lesion area compared to the lesion area in an untreated wheat ([3]; 500 ppm foliar spray) | lesion area compared to the lesion area in an untreated barley [4] | lesion area compared to the lesion area in an untreated kidney bean ([5]; 200 ppm foliar spray) | lesion area compared to the lesion area in an untreated kidney bean ([5]; 500 ppm foliar spray) | lesion area compared to the lesion area in an untreated barley [10] | lesion area compared to the lesion area in an untreated wheat [7] | lesion area compared to the lesion area in an untreated soybean [8] | lesion area compared to the lesion area in an untreated soybean [9]

CCC(=NN=C1CC[S+]([O-])c2ccccc21)OCc1c(C)cccc1-n1nnn(C)c1=O (stereo not shown) [E-29]
≤ 30%: lesion area compared to the lesion area in an untreated soybean [1] | lesion area compared to the lesion area in an untreated wheat [2, 11] | lesion area compared to the lesion area in an untreated wheat [2, 12] | lesion area compared to the lesion area in an untreated wheat ([3]; 200 ppm foliar spray) | lesion area compared to the lesion area in an untreated wheat ([3]; 500 ppm foliar spray) | lesion area compared to the lesion area in an untreated barley [4] | lesion area compared to the lesion area in an untreated barley [10] | lesion area compared to the lesion area in an untreated cucumber ([6]; 200 ppm foliar spray) | lesion area compared to the lesion area in an untreated wheat [7] | lesion area compared to the lesion area in an untreated soybean [8] | lesion area compared to the lesion area in an untreated soybean [9]
